According to article PMC5133898:
Results are given in words; binding and its absence hold for the method and conditions named. In cells and extracts the contact can be indirect. Some results given as binding are weak or reduced against the parent protein; the word gives no strength.

Chains of the proteins cited; added tags and fusions are not shown. Lines headed by an entry give the natural chain unless they say otherwise; changes in a name come on top.
UniProt P24385: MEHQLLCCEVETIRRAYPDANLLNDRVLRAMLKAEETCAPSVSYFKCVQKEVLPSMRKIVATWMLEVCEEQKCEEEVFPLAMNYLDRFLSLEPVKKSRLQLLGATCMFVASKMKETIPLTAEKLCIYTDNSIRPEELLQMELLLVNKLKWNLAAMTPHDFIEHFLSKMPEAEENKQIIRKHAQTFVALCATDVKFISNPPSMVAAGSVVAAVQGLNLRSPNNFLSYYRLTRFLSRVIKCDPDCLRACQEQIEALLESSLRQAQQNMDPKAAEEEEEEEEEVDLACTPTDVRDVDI
UniProt Q9Y297: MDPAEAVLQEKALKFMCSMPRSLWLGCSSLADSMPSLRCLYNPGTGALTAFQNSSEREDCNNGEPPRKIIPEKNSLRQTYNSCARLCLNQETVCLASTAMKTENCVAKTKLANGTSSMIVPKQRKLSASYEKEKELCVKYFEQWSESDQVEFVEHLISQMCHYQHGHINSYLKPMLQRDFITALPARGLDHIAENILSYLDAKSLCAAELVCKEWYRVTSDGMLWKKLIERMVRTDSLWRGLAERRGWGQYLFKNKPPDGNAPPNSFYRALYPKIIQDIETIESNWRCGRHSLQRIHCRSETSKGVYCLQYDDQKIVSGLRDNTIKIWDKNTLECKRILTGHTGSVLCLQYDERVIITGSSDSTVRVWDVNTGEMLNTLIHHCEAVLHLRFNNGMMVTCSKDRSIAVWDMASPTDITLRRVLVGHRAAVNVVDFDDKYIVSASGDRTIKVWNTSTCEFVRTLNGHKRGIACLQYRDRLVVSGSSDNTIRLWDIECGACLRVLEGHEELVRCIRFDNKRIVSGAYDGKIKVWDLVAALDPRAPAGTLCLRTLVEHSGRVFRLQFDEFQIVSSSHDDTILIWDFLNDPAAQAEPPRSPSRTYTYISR

Key:
[1] = target: HA-tagged Cyclin D1 (wild-type) (UniProt P24385); experiment: co-IP; HepG2 cells transfected with pcDNA3 HA-Cyclin D1 wt or T286A, treated with berberine for 6 h; complex precipitated with HA antibody; β-TrCP and Cyclin D1 detected by immunoblot
[2] = target: HA-tagged Cyclin D1 T286A mutant (UniProt P24385); experiment: as above
[3] = target: Cyclin D1 (endogenous, HepG2 cells) (human (endogenous in HepG2)) (UniProt P24385); experiment: co-IP; HepG2 cells treated with berberine for 6 h in the presence of MG-132 (20 nM); NP-40 lysate; endogenous Cyclin D1 precipitated with Cyclin D1 antibody on Dynabeads protein G; β-TrCP detected by immunoblot

Substance: β-transducin repeat-containing protein (β-TrCP), endogenous in HepG2 cells (from UniProt Q9Y297 1-605)
- binding [1]: binds
- binding [2]: no binding
- binding [3]: binds
